Experimental findings from paper PMC11009467 are described below.

The exact form of at least one protein or probe is not confirmed. No signal at the amounts used counts as a negative. At least one verdict rests on a figure or table, not on a statement of the authors.

The series deals with GST-CsERF017 (Citrus sinensis). The experiment in a line: EMSA. The conditions noted are these: Beyotime Chemiluminescent EMSA Kit per manufacturer; unlabeled oligonucleotides as competitors; pH and temperature not stated; recombinant protein; protein details: N-terminal GST (pGEX-6p-3); label: 5'-biotin.

Take “AAACTTAAGCCCCTTCTTCATCAAAAAAAACTCAAAAATTTTGTAACCAA (double strand) [CsCYP82L1 promoter Mutant Probe P2]”: the binding result was “no binding”.

Regarding “AAACTTAAGCCCCTTCTTCATCACCGACAACTCAAAAATTTTGTAACCAA (double strand) [CsCYP82L1 promoter Probe P2]”, the binding result is reported as “binds”.

On to “AACTTTTATTTGACAACTAAATAAAAATGCCAAATCTTGTTTCCAGAGTG (double strand) [CsCYP82L1 promoter Mutant Probe P1]”, for which the binding result is “no binding”.

As for “AACTTTTATTTGACAACTAAATGTCGGTGCCAAATCTTGTTTCCAGAGTG (double strand) [CsCYP82L1 promoter Probe P1]”, the binding result is given as “binds”.
